# Measured values from patent US11192859B2, “Quinoline compounds as modulators of RAGE activity and uses thereof” (NEW YORK UNIVERSITY, priority 2016, dated 2021).
# Protein sequences, listed by entry. Tags and fused reporters are not part of them. Residues count along the entry.
# UniProt Q15109, 364-404: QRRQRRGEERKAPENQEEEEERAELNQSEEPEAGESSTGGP
# At least one compound was matched to its structure with a doubt left.
# How the values were obtained:
# [1] = biological target: ctRAGE (Homo sapiens (Human), UniProt Q15109); assay: Fluorescence binding assay (native tryptophan fluorescence titration); design: key: ***: No binding; conditions: 10 nM ctRAGE, pH 7.0, 5% DMSO
# Procedure: Native tryptophan fluorescence experiments were conducted using a Horiba Jobin Yvon Fluorolog spectrofluorometer. 1 mM of compound was dissolved in 10 mM phosphate buffer [pH 7.0] and 50% DMSO. ctRAGE was bacterially expressed and purified as described^1. 10 nM ctRAGE solution was individually titrated from 0.1 nM-100 μM with the compounds in 100 μL of 10 mM phosphate buffer [pH 7.0] and 5% DMSO. The excitation and emission wavelengths were 280 nm and 352 nm, respectively. Dissociation constants, Kd, were estimated from the changes in peak fluorescence intensities as a function of the free compound concentration by using Prism 5 software (GraphPad). Data were fit to the equation, (F−F0)/Fmax=[compound]/(Kd+[compound]) where F is the fluorescence intensity at a given compound concentration, F0 is the fluorescence intensity of the blank, and Fmax is the maximum fluorescence intensity.
# [2] = biological target: RAGE tail (ctRAGE) (Homo sapiens (Human), UniProt Q15109); assay: NMR spectroscopy (15N-HSQC), direct binding to RAGE tail; design: key: Direct Binding to tail, NMR (Y or N); Direct Binding to tail, NMR (Y or N); conditions: 50 μM [U-15N] RAGE tail, 10 μM compound
compound,measurement,setting,value
"COCCNCc1cc(-c2ccc(NC(C)=O)cc2)nc2ccccc12 [Compound 233, N-(4-(4-(((2-methoxyethyl)amino)methyl)quinolin-2-yl)phenyl)acetamide]","Fluorescent Binding Assay, Kd (nM)",[1],***
same,"Direct Binding to tail, NMR (Y or N)",[2],N
